From patent publication CN110305216A
No constants are given. Whether binding was seen depends on the method and setting. Some binding calls cover weakened binding; strength is not graded here.

Experiments:
[1] = target: 食蟹猴TIM-3.ECD蛋白 (cynomolgus monkey); test: SPR; cynomolgus TIM-3.ECD immobilised on CM5 chip, W3402-z3 as analyte (Table 8 not given)
[2] = target: 细胞表面食蟹猴TIM-3 (full-length cynomolgus TIM-3 on transfected cells) (cynomolgus monkey); test: flow cytometry on transfected cells (legend of Fig. 1)

B1: W3402-2.131.17-z3 (antibody, V domains shown)
VH: QVQLQESGPGLVKPSETLSLTCTVSGFSLTNYGVGWIRQPPGKGLEWIGIMTSGGSTYYNSALRARVTINRDTSKNQFSLKLSSVTAADTAVYYCTRDGTTVETLFDYWGQGTMVTVSS
VL: DIVMTQTPLSLSVTPGQPASISCRSSQSLSDSAGITYLYWYLQKPGQSPQLLIYLASNLGSGVPDRFSGSGSGTDFTLKISRVEAEDVGVYYCMQGIHVPLTFGQGTKLEIK
[1]
  binding: binds
[2]
  binding: binds
